# Assay results taken from the supplement of paper PMC10032668.
# Protein sequences, listed by entry. Tags and fused reporters are not part of them.
# ANAPC5, Q9UJX4, UniProt Q9UJX4, whole entry: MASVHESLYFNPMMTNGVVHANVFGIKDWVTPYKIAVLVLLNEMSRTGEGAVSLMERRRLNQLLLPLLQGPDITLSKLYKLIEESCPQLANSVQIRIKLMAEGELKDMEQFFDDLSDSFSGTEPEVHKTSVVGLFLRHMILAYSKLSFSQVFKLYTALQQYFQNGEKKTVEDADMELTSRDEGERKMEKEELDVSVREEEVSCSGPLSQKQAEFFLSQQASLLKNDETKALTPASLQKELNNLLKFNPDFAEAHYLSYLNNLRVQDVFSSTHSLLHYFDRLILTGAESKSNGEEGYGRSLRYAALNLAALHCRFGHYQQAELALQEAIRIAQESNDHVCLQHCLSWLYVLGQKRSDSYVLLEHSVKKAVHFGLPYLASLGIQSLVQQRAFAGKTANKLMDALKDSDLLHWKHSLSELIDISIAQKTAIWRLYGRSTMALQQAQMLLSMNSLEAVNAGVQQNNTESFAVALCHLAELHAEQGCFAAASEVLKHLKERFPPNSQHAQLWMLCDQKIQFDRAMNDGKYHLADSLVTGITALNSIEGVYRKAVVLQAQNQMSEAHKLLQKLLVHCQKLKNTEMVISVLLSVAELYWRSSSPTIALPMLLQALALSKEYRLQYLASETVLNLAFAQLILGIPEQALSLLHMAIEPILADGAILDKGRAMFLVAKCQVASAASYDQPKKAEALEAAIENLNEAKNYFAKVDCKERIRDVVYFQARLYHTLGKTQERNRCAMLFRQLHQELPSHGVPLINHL
# CFDP1, Q9UEE9, UniProt Q9UEE9, whole entry: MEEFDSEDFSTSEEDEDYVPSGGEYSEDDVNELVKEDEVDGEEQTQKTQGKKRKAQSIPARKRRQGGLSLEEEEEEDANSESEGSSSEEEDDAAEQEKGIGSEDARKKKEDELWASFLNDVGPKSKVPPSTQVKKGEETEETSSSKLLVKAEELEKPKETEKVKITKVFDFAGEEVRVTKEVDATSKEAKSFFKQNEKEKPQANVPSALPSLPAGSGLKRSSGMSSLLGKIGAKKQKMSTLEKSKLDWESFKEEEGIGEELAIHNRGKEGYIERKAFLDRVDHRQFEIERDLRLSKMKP
# KPNA1, P52294, UniProt P52294, whole entry: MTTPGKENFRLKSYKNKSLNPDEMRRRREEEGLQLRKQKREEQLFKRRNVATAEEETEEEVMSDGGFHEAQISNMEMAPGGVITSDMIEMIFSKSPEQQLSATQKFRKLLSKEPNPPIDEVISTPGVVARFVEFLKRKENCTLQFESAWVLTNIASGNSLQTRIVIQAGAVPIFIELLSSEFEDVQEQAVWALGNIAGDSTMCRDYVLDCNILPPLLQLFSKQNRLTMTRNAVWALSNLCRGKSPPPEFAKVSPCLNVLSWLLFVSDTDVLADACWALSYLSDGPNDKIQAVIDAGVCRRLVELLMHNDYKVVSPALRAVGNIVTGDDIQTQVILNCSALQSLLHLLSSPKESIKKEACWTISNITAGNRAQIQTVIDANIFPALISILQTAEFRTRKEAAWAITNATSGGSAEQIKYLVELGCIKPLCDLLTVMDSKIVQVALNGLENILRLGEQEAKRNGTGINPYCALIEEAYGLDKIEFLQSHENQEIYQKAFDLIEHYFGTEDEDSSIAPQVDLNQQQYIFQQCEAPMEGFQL
# SDC2, P34741, UniProt P34741, whole entry: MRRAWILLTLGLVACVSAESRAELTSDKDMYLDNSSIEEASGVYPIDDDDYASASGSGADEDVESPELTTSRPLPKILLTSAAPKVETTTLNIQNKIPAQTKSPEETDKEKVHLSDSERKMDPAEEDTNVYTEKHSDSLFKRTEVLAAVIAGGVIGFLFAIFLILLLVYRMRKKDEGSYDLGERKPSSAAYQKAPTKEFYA
# SET, Q01105, UniProt Q01105, whole entry: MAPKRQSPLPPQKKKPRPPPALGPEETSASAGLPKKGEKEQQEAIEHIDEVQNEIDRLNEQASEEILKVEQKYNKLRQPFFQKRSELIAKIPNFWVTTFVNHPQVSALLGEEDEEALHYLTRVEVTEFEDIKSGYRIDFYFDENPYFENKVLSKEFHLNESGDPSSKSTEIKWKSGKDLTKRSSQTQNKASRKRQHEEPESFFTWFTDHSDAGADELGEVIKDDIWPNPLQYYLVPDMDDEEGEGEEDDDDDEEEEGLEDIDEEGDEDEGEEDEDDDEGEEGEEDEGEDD
# The other results are listed elsewhere or left out. The list holds hits alone, and they repeat only in part.
# How the values were obtained:
# Experiment in all cases: PRISMA enrichment of interactor (LFQ) in peptide spot vs all other peptide spots (log2 fold change); higher = stronger / more specific binding of the interactor to the peptide
# ANAPC5, Q9UJX4 = biological target: ANAPC5, Q9UJX4
# Description: (§1)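 PRISMA: 221 full-length sORF-encoded peptides (3-15 aa), plus SOS1/GLUT1 control peptides, were spot-synthesized on cellulose membranes in triplicate. Membranes were incubated with HEK293T lysate, and bound proteins were identified by LC-MS/MS with LFQ. Enrichment is the log2 fold change versus all other peptide spots; only significant interactors are listed (cutoff c=6, x0=2.8).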
# CAV1, Q03135 = biological target: CAV1, Q03135
# Description: as §1
# ANGEL1, Q9UNK9 = biological target: ANGEL1, Q9UNK9
# Description: as §1
# CFDP1, Q9UEE9 = biological target: CFDP1, Q9UEE9
# Description: as §1
# HNRNPF, P52597 = biological target: HNRNPF, P52597
# Description: as §1
# MRPL51, Q4U2R6 = biological target: MRPL51, Q4U2R6
# Description: as §1
# PALLD, Q8WX93 = biological target: PALLD, Q8WX93
# Description: as §1
# RBM10 = biological target: RBM10
# Description: as §1
# RCN2, Q14257 = biological target: RCN2, Q14257
# Description: as §1
# RRS1, Q15050 = biological target: RRS1, Q15050
# Description: as §1
# SNX9, Q9Y5X1 = biological target: SNX9, Q9Y5X1
# Description: as §1
# THOC3, Q96J01 = biological target: THOC3, Q96J01
# Description: as §1
# TRIP4, Q15650 = biological target: TRIP4, Q15650
# Description: as §1
# USP24, Q9UPU5 = biological target: USP24, Q9UPU5
# Description: as §1
# XRN1, Q8IZH2 = biological target: XRN1, Q8IZH2
# Description: as §1
# ANKHD1, Q8IWZ3 = biological target: ANKHD1, Q8IWZ3
# Description: as §1
# ANP32A, P39687 = biological target: ANP32A, P39687
# Description: as §1
# ANP32B, Q92688 = biological target: ANP32B, Q92688
# Description: as §1
# ANP32E, Q9BTT0 = biological target: ANP32E, Q9BTT0
# Description: as §1
# C7orf50, Q9BRJ6 = biological target: C7orf50, Q9BRJ6
# Description: as §1
# CDC73, Q6P1J9 = biological target: CDC73, Q6P1J9
# Description: as §1
# CDCA7L, Q96GN5 = biological target: CDCA7L, Q96GN5
# Description: as §1
# CDK11B, P21127 = biological target: CDK11B, P21127
# Description: as §1
# CENPB, P07199 = biological target: CENPB, P07199
# Description: as §1
# CHD1, O14646 = biological target: CHD1, O14646
# Description: as §1
# CTR9, Q6PD62 = biological target: CTR9, Q6PD62
# Description: as §1
# DDX21, Q9NR30 = biological target: DDX21, Q9NR30
# Description: as §1
# EBNA1BP2, Q99848 = biological target: EBNA1BP2, Q99848
# Description: as §1
# EIF6, P56537 = biological target: EIF6, P56537
# Description: as §1
# ESF1, Q9H501 = biological target: ESF1, Q9H501
# Description: as §1
# FLYWCH2, Q96CP2 = biological target: FLYWCH2, Q96CP2
# Description: as §1
# GPC4, O75487 = biological target: GPC4, O75487
# Description: as §1
# GTPBP4, Q9BZE4 = biological target: GTPBP4, Q9BZE4
# Description: as §1
# HTATSF1, O43719 = biological target: HTATSF1, O43719
# Description: as §1
# IWS1, Q96ST2 = biological target: IWS1, Q96ST2
# Description: as §1
# KPNA1, P52294 = biological target: KPNA1, P52294
# Description: as §1
# KRI1, Q8N9T8 = biological target: KRI1, Q8N9T8
# Description: as §1
# LARP1, Q6PKG0 = biological target: LARP1, Q6PKG0
# Description: as §1
# LETMD1, Q6P1Q0 = biological target: LETMD1, Q6P1Q0
# Description: as §1
# MAGEB2, O15479 = biological target: MAGEB2, O15479
# Description: as §1
# MOV10, Q9HCE1 = biological target: MOV10, Q9HCE1
# Description: as §1
# NAT10, Q9H0A0 = biological target: NAT10, Q9H0A0
# Description: as §1
# NOC2L, Q9Y3T9 = biological target: NOC2L, Q9Y3T9
# Description: as §1
# NOLC1, Q14978 = biological target: NOLC1, Q14978
# Description: as §1
# NOP2, P46087 = biological target: NOP2, P46087
# Description: as §1
# NTMT1, Q9BV86 = biological target: NTMT1, Q9BV86
# Description: as §1
# PAF1, Q8N7H5 = biological target: PAF1, Q8N7H5
# Description: as §1
# PELP1, Q8IZL8 = biological target: PELP1, Q8IZL8
# Description: as §1
# PPM1G, O15355 = biological target: PPM1G, O15355
# Description: as §1
# RBM28, Q9NW13 = biological target: RBM28, Q9NW13
# Description: as §1
# RBM34, P42696 = biological target: RBM34, P42696
# Description: as §1
# RSL1D1, O76021 = biological target: RSL1D1, O76021
# Description: as §1
# SDC2, P34741 = biological target: SDC2, P34741
# Description: as §1
# SET, Q01105 = biological target: SET, Q01105
# Description: as §1
# SH3GL1, Q99961 = biological target: SH3GL1, Q99961
# Description: as §1
# SMAP, O00193 = biological target: SMAP, O00193
# Description: as §1
# SRP19, P09132 = biological target: SRP19, P09132
# Description: as §1
# SRSF7, Q16629 = biological target: SRSF7, Q16629
# Description: as §1
# STAU1, O95793 = biological target: STAU1, O95793
# Description: as §1
# UBTF, P17480 = biological target: UBTF, P17480
# Description: as §1
# ZC3H18, Q86VM9 = biological target: ZC3H18, Q86VM9
# Description: as §1
# ZRANB2, O95218 = biological target: ZRANB2, O95218
# Description: as §1
binder,measurement,setting,value
MEQK [MAGI2-AS3],PRISMA enrichment of interactor (log2),"ANAPC5, Q9UJX4",5.5
same,PRISMA enrichment of interactor (log2),"CAV1, Q03135",4.38
MSAPRHPVSQARPF [SEC14L1],PRISMA enrichment of interactor (log2),"ANGEL1, Q9UNK9",3.84
same,PRISMA enrichment of interactor (log2),"CFDP1, Q9UEE9",4.21
same,PRISMA enrichment of interactor (log2),"HNRNPF, P52597",5.07
same,PRISMA enrichment of interactor (log2),"MRPL51, Q4U2R6",4.52
same,PRISMA enrichment of interactor (log2),"PALLD, Q8WX93",4.31
same,PRISMA enrichment of interactor (log2),RBM10,7.23
same,PRISMA enrichment of interactor (log2),"RCN2, Q14257",6.57
same,PRISMA enrichment of interactor (log2),"RRS1, Q15050",5.73
same,PRISMA enrichment of interactor (log2),"SNX9, Q9Y5X1",4.27
same,PRISMA enrichment of interactor (log2),"THOC3, Q96J01",4.32
same,PRISMA enrichment of interactor (log2),"TRIP4, Q15650",6.67
same,PRISMA enrichment of interactor (log2),"USP24, Q9UPU5",5.7
same,PRISMA enrichment of interactor (log2),"XRN1, Q8IZH2",6.05
MKKTRHREVLNLAQV [CLDN12],PRISMA enrichment of interactor (log2),"ANKHD1, Q8IWZ3",4.37
same,PRISMA enrichment of interactor (log2),"ANP32A, P39687",7.72
same,PRISMA enrichment of interactor (log2),"ANP32B, Q92688",7.76
same,PRISMA enrichment of interactor (log2),"ANP32E, Q9BTT0",7.37
same,PRISMA enrichment of interactor (log2),"C7orf50, Q9BRJ6",4.3
same,PRISMA enrichment of interactor (log2),"CDC73, Q6P1J9",6.11
same,PRISMA enrichment of interactor (log2),"CDCA7L, Q96GN5",3.91
same,PRISMA enrichment of interactor (log2),"CDK11B, P21127",6.36
same,PRISMA enrichment of interactor (log2),"CENPB, P07199",4.85
same,PRISMA enrichment of interactor (log2),"CHD1, O14646",5.15
same,PRISMA enrichment of interactor (log2),"CTR9, Q6PD62",6.71
same,PRISMA enrichment of interactor (log2),"DDX21, Q9NR30",5.96
same,PRISMA enrichment of interactor (log2),"EBNA1BP2, Q99848",5.69
same,PRISMA enrichment of interactor (log2),"EIF6, P56537",5.94
same,PRISMA enrichment of interactor (log2),"ESF1, Q9H501",5.19
same,PRISMA enrichment of interactor (log2),"FLYWCH2, Q96CP2",4.06
same,PRISMA enrichment of interactor (log2),"GPC4, O75487",5.25
same,PRISMA enrichment of interactor (log2),"GTPBP4, Q9BZE4",6.03
same,PRISMA enrichment of interactor (log2),"HTATSF1, O43719",7.56
same,PRISMA enrichment of interactor (log2),"IWS1, Q96ST2",4.51
same,PRISMA enrichment of interactor (log2),"KPNA1, P52294",5.42
same,PRISMA enrichment of interactor (log2),"KRI1, Q8N9T8",4.49
same,PRISMA enrichment of interactor (log2),"LARP1, Q6PKG0",6.05
same,PRISMA enrichment of interactor (log2),"LETMD1, Q6P1Q0",6.3
same,PRISMA enrichment of interactor (log2),"MAGEB2, O15479",5.68
same,PRISMA enrichment of interactor (log2),"MOV10, Q9HCE1",5.74
same,PRISMA enrichment of interactor (log2),"NAT10, Q9H0A0",6.02
same,PRISMA enrichment of interactor (log2),"NOC2L, Q9Y3T9",4.88
same,PRISMA enrichment of interactor (log2),"NOLC1, Q14978",4.88
same,PRISMA enrichment of interactor (log2),"NOP2, P46087",5.38
same,PRISMA enrichment of interactor (log2),"NTMT1, Q9BV86",5.07
same,PRISMA enrichment of interactor (log2),"PAF1, Q8N7H5",7.35
same,PRISMA enrichment of interactor (log2),"PELP1, Q8IZL8",5.21
same,PRISMA enrichment of interactor (log2),"PPM1G, O15355",5.81
same,PRISMA enrichment of interactor (log2),"RBM28, Q9NW13",5.13
same,PRISMA enrichment of interactor (log2),"RBM34, P42696",4.87
same,PRISMA enrichment of interactor (log2),"RSL1D1, O76021",5.12
same,PRISMA enrichment of interactor (log2),"SDC2, P34741",4.98
same,PRISMA enrichment of interactor (log2),"SET, Q01105",6.67
same,PRISMA enrichment of interactor (log2),"SH3GL1, Q99961",4.99
same,PRISMA enrichment of interactor (log2),"SMAP, O00193",5.14
same,PRISMA enrichment of interactor (log2),"SRP19, P09132",4.59
same,PRISMA enrichment of interactor (log2),"SRSF7, Q16629",5.21
same,PRISMA enrichment of interactor (log2),"STAU1, O95793",5.26
same,PRISMA enrichment of interactor (log2),"UBTF, P17480",7.47
same,PRISMA enrichment of interactor (log2),"ZC3H18, Q86VM9",4.83
same,PRISMA enrichment of interactor (log2),"ZRANB2, O95218",6.85

# Some of the entries so far, as tab-separated lines.
binder	measurement	setting	value
MKKTRHREVLNLAQV [CLDN12]	PRISMA enrichment of interactor (log2)	CENPB, P07199	4.85
same	PRISMA enrichment of interactor (log2)	CHD1, O14646	5.15
same	PRISMA enrichment of interactor (log2)	CTR9, Q6PD62	6.71
same	PRISMA enrichment of interactor (log2)	DDX21, Q9NR30	5.96
